This is one part of the list.

Chains of the proteins cited; added tags and fusions are not shown.
UniProt Q0JBA9, entry or part of it: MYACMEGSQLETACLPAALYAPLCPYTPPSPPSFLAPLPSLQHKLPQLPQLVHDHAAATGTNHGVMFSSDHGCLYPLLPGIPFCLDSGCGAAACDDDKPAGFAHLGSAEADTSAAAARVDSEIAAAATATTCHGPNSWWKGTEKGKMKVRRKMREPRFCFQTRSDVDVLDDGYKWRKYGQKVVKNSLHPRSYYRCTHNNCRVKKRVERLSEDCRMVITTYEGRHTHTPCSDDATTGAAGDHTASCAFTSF

The target in this assay is OsWRKY34 (Oryza sativa, UniProt Q0JBA9 1-250). The assay can be described thus: protein-binding microarray (RPBM); PBS, 2% BSA, 51.3 ng/ul salmon testes DNA, 50 uM zinc acetate, 200 nM TF, 25 C, 1 h; high values mean tight binding. The settings on record: protein: recombinant; tags: N-terminal polyhistidine and DsRed monomer fusion (pET32a); label: CyDye5-dUTP incorporated in the synthesized complementary strand; 3' TTTTT single-stranded linker to array surface; dsDNA, one strand shown. Summed up: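 In PBS with 2% BSA, salmon testes DNA and 50 µM zinc acetate, 200 nM protein was incubated on a custom Agilent array at 25 °C for 1 h and then washed off. The array had been made double-stranded by primer extension with Cy5-dUTP and blocked with 2% BSA. The proteins were transcription factors fused N-terminally to polyhistidine and DsRed, expressed in E. coli BL21-CodonPlus and purified on Ni–NTA. The binding signal is per-feature fluorescence intensity (arbitrary units) from an Axon 4000B scanner.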
With “GGTATGCTACATTTGCTGTTTATTTTTTAGCAAAGCTAAACGGAGTCACCTAGTGCAG”, the binding signal is 8860 fluorescence intensity (a.u.).
For “CCCCGTCTCTCCCTGTGTCTCGTCTTCGTCTCGGCTCGTCCGGAGTCACCTAGTGCAG” the value was 8820 fluorescence intensity (a.u.); for “CACATGTTATTACCACCTCATTTTGCGTAAAACACTTAATCGGAGTCACCTAGTGCAG”, 8460 fluorescence intensity (a.u.).
Regarding “TGAACAGACAGCAATTACCTTTCGTGTTCTCTTCTAGGAACGGAGTCACCTAGTGCAG”, the binding signal is 9050 fluorescence intensity (a.u.).
Regarding “CTCTATCTTTTTCTTACTCTCTCGTGTTCCTCTTCACTGCCGGAGTCACCTAGTGCAG”, the binding signal is 11100 fluorescence intensity (a.u.).
“TATGGCTGTGTTCTTCCCTTCCTTTCCCAACTAACTTTCCCGGAGTCACCTAGTGCAG”: the binding signal is 8780 fluorescence intensity (a.u.).
On to “TTAGTCTCTCTCTTAACCTCCTATGGATGTCTTGTATTTACGGAGTCACCTAGTGCAG”, for which the binding signal was 8550 fluorescence intensity (a.u.).
In the case of “GTTCTATTGTACTGGTCAGTTCAGTGGACTCGGTTCTGTTCGGAGTCACCTAGTGCAG”, the binding signal is 9260 fluorescence intensity (a.u.).
In the case of “GTTGTTTGGCTGTGTTTCTTGTGTTTTTAATGTTTCACTTCGGAGTCACCTAGTGCAG”, the binding signal was 13000 fluorescence intensity (a.u.).
The figure for “TCTCTCCTACGTATATAAGCGGCTTCCTTCCCAACTAATTCGGAGTCACCTAGTGCAG” is 9210 fluorescence intensity (a.u.).
As to “ACAGCAGCCCAGGCACAGCCCAACTCTCGGGCCCGTCATCCGGAGTCACCTAGTGCAG”, the binding signal is 8360 fluorescence intensity (a.u.).
As to “TGACGTTTGACCAAAGTTTTCTTCAATTTTTCAGAAATGGCGGAGTCACCTAGTGCAG”, the binding signal was 9900 fluorescence intensity (a.u.).
In the case of “TTGTAACTATGGTGTAGTCTTATTATCGCTCTTTTCTTTTCGGAGTCACCTAGTGCAG”, the binding signal was 9800 fluorescence intensity (a.u.).
On to “AGGAGACCGATGGGGACATGGGGCGTGGCGGGAGAGGATTCGGAGTCACCTAGTGCAG”, for which the binding signal was 8620 fluorescence intensity (a.u.).
The figure for “GGGCCCCGCTCTCAGTGTTTGTGCCTTGCGAGTTGGGAAGCGGAGTCACCTAGTGCAG” is 14900 fluorescence intensity (a.u.); for “GGGTCGCTGTCTTGCTGAAATATGGGCTAACAAGCTGTGGCGGAGTCACCTAGTGCAG” it is 8600 fluorescence intensity (a.u.); for “CAATTGACATACACGACATATTTTTCCCCTTATTTTTTTTCGGAGTCACCTAGTGCAG” it is 10400 fluorescence intensity (a.u.).
In the case of “ATTCCAGCCCATGTTTGGCAAGTGCTATTTTTATGGTAAACGGAGTCACCTAGTGCAG”, the binding signal was 11700 fluorescence intensity (a.u.).
In the case of “TTCTCCGCGCTGCAGTCCTCGCCACAACTCGTCGGCCGAACGGAGTCACCTAGTGCAG”, the binding signal was 11600 fluorescence intensity (a.u.).
As to “TAGTAGTGTACTGTTTATATCTAATTTTGTCTTTTTTTTTCGGAGTCACCTAGTGCAG”, the binding signal is 12000 fluorescence intensity (a.u.).
As to “CCAGCCCCGCGCCGGCCGCCGTCCGTCCGCCCGCGCGCGGCGGAGTCACCTAGTGCAG”, the binding signal is 8380 fluorescence intensity (a.u.).
As to “TGGAGTAAACTTTTTTGACTCTGTGCCGTTGCCTGTTTTTCGGAGTCACCTAGTGCAG”, the binding signal was 12600 fluorescence intensity (a.u.).
Regarding “GGGGAAGGAGAAGAGGAAGGAGAGGGGAGGAGGAGGAGGGCGGAGTCACCTAGTGCAG”, the binding signal is 8870 fluorescence intensity (a.u.).
Turning to “CCGCTTTCCGATTCAGTTTTTTTTGTTCTTACCTTGCACGCGGAGTCACCTAGTGCAG”, the binding signal is 12500 fluorescence intensity (a.u.).
“CTCCAAATCAGAAACACACTCGCCTCGCCTCCTTTCGCTCCGGAGTCACCTAGTGCAG”: the binding signal is 8540 fluorescence intensity (a.u.).
For “TTATCATCTGCCACCAGTTTTAGTTGTATACTTGCAGCCTCGGAGTCACCTAGTGCAG” the value was 11600 fluorescence intensity (a.u.).
On to “CATTGATCTAGGATCACTCCGGTCTTTCCTTTCATGCTGACGGAGTCACCTAGTGCAG”, for which the binding signal is 10900 fluorescence intensity (a.u.).
The figure for “ATATTGTTGACTTTTTAGCACATGTTTAACCGTTCATCTTCGGAGTCACCTAGTGCAG” is 19600 fluorescence intensity (a.u.); for “ACGTCCCCGCCACGCAAGCGCCCATCCACCCGTCCATCCCCGGAGTCACCTAGTGCAG” it is 9680 fluorescence intensity (a.u.).
The figure for “GTTCCAAAATTTTTCTTTAAACTTCCAACATTTTCATCACCGGAGTCACCTAGTGCAG” is 9190 fluorescence intensity (a.u.); for “CAAGCAATACCTATTTCCTGCACATGTCATCACCTCTTTTCGGAGTCACCTAGTGCAG” it is 14100 fluorescence intensity (a.u.).
As to “AACTCACCTCCTTCGTCTTCACACGCACGCTTTTCAAACTCGGAGTCACCTAGTGCAG”, the binding signal was 8450 fluorescence intensity (a.u.).
Regarding “CCCGTTGCTACTTTGCTCCTCGCATCAGTCACCTGGGGATCGGAGTCACCTAGTGCAG”, the binding signal was 8300 fluorescence intensity (a.u.).
On to “GAGGGAAATCGATCTGAGAGGGAGGAGGGGAGGAGGGGAGCGGAGTCACCTAGTGCAG”, for which the binding signal was 13600 fluorescence intensity (a.u.).
Consider “GCCTTTATGGACTGAGCTCTTTGTTTATTTACACCTTGTCCGGAGTCACCTAGTGCAG”, for which the binding signal was 12200 fluorescence intensity (a.u.).
For “AAGGCTCCAACTGTTCTTGTCACACTCTCACTGTCCACGCCGGAGTCACCTAGTGCAG” the value was 9170 fluorescence intensity (a.u.).
For “CTGGATGGTGGTGGTCGAACTATCAGGGGCGTTATGCATACGGAGTCACCTAGTGCAG” the value was 10200 fluorescence intensity (a.u.).
The figure for “TTCTCTTGCTTCCTTTTTGGTCATTTGAGATAGCTTTATCCGGAGTCACCTAGTGCAG” is 10300 fluorescence intensity (a.u.); for “TCTTCGGCCTCTCCGCCTCCGCCATTGACAGCGTTGACCACGGAGTCACCTAGTGCAG” it is 18300 fluorescence intensity (a.u.).
“CCCACCACACACCCGGCCCCACATGTCATCCACCCATCCACGGAGTCACCTAGTGCAG”: the binding signal was 16000 fluorescence intensity (a.u.).
As to “ATTTGACATTTTCTAGCTAGTACAACCGGTTTCATTTTTACGGAGTCACCTAGTGCAG”, the binding signal is 11100 fluorescence intensity (a.u.).
“ATCCTCGCTGCTCTTCTCCACTGGTTCTCCATCACCGGCTCGGAGTCACCTAGTGCAG”: the binding signal was 8160 fluorescence intensity (a.u.).

For the origin of these results see article PMC7819943, “Rice protein-binding microarrays: a tool to detect cis-acting elements near promoter regions in rice”.
